# Results reported in PMC5996148.
# This is one part of the list.
# Key:
# Experiment in all cases: protein microarray (ProtoArray v5.0), streptavidin-Alexa Fluor 647
# Settings in all cases: 3'-biotin; 20 mM Tris (pH 7.5), 5 mM MgCl2, 100 mM KCl, 0.1% Tween-20, A/T-rich and random oligonucleotide blockers; temperature not stated; high values mean tight binding
# [1] = test system: Serine/threonine-protein kinase VRK3 (human)
# [2] = test system: Serine/threonine-protein phosphatase 2A 56 kDa regulatory subunit gamma isoform (human)
# [3] = test system: Serine/threonine-protein phosphatase 2A 65 kDa regulatory subunit A beta isoform (human)
# [4] = test system: Serologically defined colon cancer antigen 3 (human)
# Serum albumin (human) = test system: Serum albumin (human)
# [5] = test system: Serum amyloid A protein (human)
# [6] = test system: Signal transducer and activator of transcription 4 (human)
# [7] = test system: Signal transducer and activator of transcription 6 (human)
# [8] = test system: Smith-Magenis syndrome chromosome region candidate gene 7 protein (human)
# [9] = test system: Sodium channel and clathrin linker 1 (human)
sequence,measurement,setting,value
GGTGACAGGGGTATGGGGAGGGG [G4-2 biotinylated (Ct1)],binding signal,[1],5.13 z-score
same,binding signal,[2],-0.383 z-score
same,binding signal,[3],-0.396 z-score
same,binding signal,[4],-0.38 z-score
same,binding signal,Serum albumin (human),-0.399 z-score
same,binding signal,[5],-0.358 z-score
same,binding signal,[6],-0.376 z-score
same,binding signal,[7],-0.369 z-score
same,binding signal,[8],-0.392 z-score
same,binding signal,[9],-0.394 z-score

# A different layout for part of the listing above.
sequence | measurement | setting | value
GGTGACAGGGGTATGGGGAGGGG [G4-2 biotinylated (Ct1)] | binding signal | [1] | 5.13 z-score
same | binding signal | [5] | -0.358 z-score
